Results deposited as PubChem BioAssay AID1259425 (University of Nebraska Medical Center, 2018).
Screen: 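Find knockdowns that reproduce the gene expression pattern seen when KSR1 is lost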 (primary screen). System: HCT116 human colon cancer cells. Reagents: siRNA pool against human genes, 50 nM siRNA. Measurement: 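After 50 nM siRNA pool, branched-DNA assay measures six marker transcripts per well, minus blank, normalised to the geometric mean of two housekeeping transcripts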. Scale: BNIP3L mRNA: higher = more BNIP3L transcript after knockdown; NDRG1 mRNA: higher = more NDRG1 transcript after knockdown; BNIP3 mRNA: higher = more BNIP3 transcript after knockdown; ALDOC mRNA: higher = more ALDOC transcript after knockdown; ACSL5 mRNA: higher = more ACSL5 transcript after knockdown.
Here is an unselected part of about 14,000 reagents tested. The record does not give: the time to read-out.

Gene,"BNIP3L mRNA, set 1","NDRG1 mRNA, set 1","BNIP3 mRNA, set 1","ALDOC mRNA, set 1","ACSL5 mRNA, set 1"
SLC25A20,0.164,0.202,0.48,0.037,0.15
INPP4B (inositol polyphosphate-4-phosphatase type II B),0.152,0.118,0.276,0.0194,0.131
BFSP2 (beaded filament structural protein 2),0.0822,0.124,0.336,0.0203,0.0808
SLAMF6 (SLAM family member 6),0.192,0.139,0.351,0.0295,0.267
UQCC1 (ubiquinol-cytochrome c reductase complex assembly factor 1),0.109,0.264,0.277,0.059,0.181
UTP4 (UTP4 small subunit processome component),0.0699,0.131,0.302,0.00285,0.0862
ADGRA2 (adhesion G protein-coupled receptor A2),0.176,0.227,0.221,0.0208,0.209
ADTRP (androgen dependent TFPI regulating protein),0.0988,0.311,0.369,0.0295,0.337
AKAP1 (A-kinase anchoring protein 1),0.333,0.21,0.461,0.0144,0.478
FBXL8 (F-box and leucine rich repeat protein 8),0.04,0.145,0.218,0.0141,0.195
KIAA1191,0.0807,0.107,0.225,0.0352,0.115
NRIP2 (nuclear receptor interacting protein 2),0.177,0.138,0.348,0.0241,0.138
KISS1 (KiSS-1 metastasis suppressor),0.193,0.15,0.297,0.0145,0.162
SV2C (synaptic vesicle glycoprotein 2C),0.105,0.296,0.247,0.0277,0.176
MAP3K7CL (MAP3K7 C-terminal like),0.0439,0.478,0.25,0.0108,0.267
TAS2R8 (taste 2 receptor member 8),0.188,0.104,0.313,0.0237,0.0232
TNXB (tenascin XB),0.202,0.307,0.283,0.00622,0.128
PDHA2 (pyruvate dehydrogenase E1 subunit alpha 2),0.088,0.187,0.251,0.0159,0.207
ABR (ABR activator of RhoGEF and GTPase),0.136,0.191,0.415,0.0417,0.185
NRM (nurim),0.212,0.525,0.251,0.0516,0.217
TOR1AIP1 (torsin 1A interacting protein 1),0.16,0.151,0.405,0.032,0.18
P2RX1 (purinergic receptor P2X 1),0.351,0.702,0.418,0.0262,0.245
ANGEL1 (angel homolog 1),0.125,0.36,0.288,0.0198,0.0816
SSBP1 (single stranded DNA binding protein 1),0.138,0.173,0.226,0.0328,0.0747
VPS25 (vacuolar protein sorting 25 homolog),0.186,0.137,0.247,0.0714,0.357
TMEM11 (transmembrane protein 11),0.141,0.285,0.188,0.0314,0.274
SEC61A2 (SEC61 translocon subunit alpha 2),0.116,0.106,0.388,0.02,0.106
NOTCH2 (notch receptor 2),0.111,0.267,0.239,0.0126,0.14
"HLA-B (major histocompatibility complex, class I, B)",0.104,0.396,0.359,0.0171,0.107
TARBP1 (tRNA guanosine 2 -O-methyltransferase TARBP1),0.066,0.121,0.274,0.0185,0.131
CXCR2 (C-X-C motif chemokine receptor 2),0.0973,0.132,0.275,0.0562,0.123
C11orf71 (chromosome 11 open reading frame 71),0.0843,0.113,0.205,0.0101,0.251
"TRMT10C (tRNA methyltransferase 10C, mitochondrial RNase P subunit)",0.0487,0.222,0.275,0.0114,0.156
NLRP9 (NLR family pyrin domain containing 9),0.103,0.126,0.314,0.0242,0.1
